Assay results from paper PMC7005284.

Protein sequences, listed by entry. Tags and fused reporters are not part of them. Lines headed by an entry give the natural chain unless they say otherwise; changes in a name come on top. Residues count along the entry.
UniProt Q60751, residues 31-1373: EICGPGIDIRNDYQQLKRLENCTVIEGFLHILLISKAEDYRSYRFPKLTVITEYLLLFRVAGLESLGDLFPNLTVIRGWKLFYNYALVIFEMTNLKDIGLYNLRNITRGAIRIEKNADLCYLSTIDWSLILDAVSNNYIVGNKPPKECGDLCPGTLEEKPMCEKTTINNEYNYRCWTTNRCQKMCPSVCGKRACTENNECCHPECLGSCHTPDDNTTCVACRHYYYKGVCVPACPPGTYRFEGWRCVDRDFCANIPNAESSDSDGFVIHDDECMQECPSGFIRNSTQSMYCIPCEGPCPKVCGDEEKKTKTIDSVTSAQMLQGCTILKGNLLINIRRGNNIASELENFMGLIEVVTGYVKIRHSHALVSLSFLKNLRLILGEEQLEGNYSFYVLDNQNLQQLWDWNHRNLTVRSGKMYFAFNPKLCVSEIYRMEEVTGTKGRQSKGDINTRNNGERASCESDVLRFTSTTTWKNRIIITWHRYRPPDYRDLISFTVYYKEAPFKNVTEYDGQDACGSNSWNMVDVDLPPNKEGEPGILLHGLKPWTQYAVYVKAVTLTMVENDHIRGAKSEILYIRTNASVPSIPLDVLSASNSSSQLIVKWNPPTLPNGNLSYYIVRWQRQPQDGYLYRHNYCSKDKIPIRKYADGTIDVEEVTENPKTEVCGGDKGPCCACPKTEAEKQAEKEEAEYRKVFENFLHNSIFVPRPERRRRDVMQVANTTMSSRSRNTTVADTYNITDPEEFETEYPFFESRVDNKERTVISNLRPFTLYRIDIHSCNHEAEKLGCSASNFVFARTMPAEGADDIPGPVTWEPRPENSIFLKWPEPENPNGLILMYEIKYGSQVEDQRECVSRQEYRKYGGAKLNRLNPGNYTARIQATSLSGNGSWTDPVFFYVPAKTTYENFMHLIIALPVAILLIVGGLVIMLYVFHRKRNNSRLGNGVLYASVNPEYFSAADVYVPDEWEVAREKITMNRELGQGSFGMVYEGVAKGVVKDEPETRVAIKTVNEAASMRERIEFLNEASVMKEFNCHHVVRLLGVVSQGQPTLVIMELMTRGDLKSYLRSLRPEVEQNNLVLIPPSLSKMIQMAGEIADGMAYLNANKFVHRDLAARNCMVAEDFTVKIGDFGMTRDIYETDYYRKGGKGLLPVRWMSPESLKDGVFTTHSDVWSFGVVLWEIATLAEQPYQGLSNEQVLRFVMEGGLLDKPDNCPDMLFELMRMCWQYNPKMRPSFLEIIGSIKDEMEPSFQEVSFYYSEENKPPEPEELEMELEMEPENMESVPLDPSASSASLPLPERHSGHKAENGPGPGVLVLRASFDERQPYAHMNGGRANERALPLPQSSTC
UniProt P51437: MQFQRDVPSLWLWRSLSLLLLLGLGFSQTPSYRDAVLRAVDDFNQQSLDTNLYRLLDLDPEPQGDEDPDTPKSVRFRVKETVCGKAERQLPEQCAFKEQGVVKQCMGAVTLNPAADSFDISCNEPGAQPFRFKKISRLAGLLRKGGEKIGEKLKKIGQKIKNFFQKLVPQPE

Target: Flag-IGFR1 (insulin-like growth factor 1 receptor) (UniProt Q60751)
Experiment: co-IP; NRCMs co-transfected with psicoR-HA-CRAMP and psicoRFlag-IGFR1 or psicoRFlag-TLR9; lysed in immunoprecipitation buffer; A/G agarose beads and 1 ug antibody overnight at 4 °C; which partner was precipitated is not told

Substance: HA-CRAMP (cathelicidin-related antimicrobial peptide) (from UniProt P51437)
- binding: binds

These are yes or no findings as the source states them, for the method shown. In cells and extracts the contact can be indirect. Binding calls can cover weak binding; strength is not graded here.
